Results: article PMC8699254
No constants are given. Whether binding was seen depends on the method and setting. Binding seen in cells or lysates may run through a third protein. Some results given as binding are weak or reduced against the parent protein; the word gives no strength. Where a sequence is shown, tags or fusion partners need not be part of it. Values belong to the binder of their own block, whether it stands above or below them.

Amino acid sequences for entries named in this document (tags omitted).
UniProt Q9ULH1: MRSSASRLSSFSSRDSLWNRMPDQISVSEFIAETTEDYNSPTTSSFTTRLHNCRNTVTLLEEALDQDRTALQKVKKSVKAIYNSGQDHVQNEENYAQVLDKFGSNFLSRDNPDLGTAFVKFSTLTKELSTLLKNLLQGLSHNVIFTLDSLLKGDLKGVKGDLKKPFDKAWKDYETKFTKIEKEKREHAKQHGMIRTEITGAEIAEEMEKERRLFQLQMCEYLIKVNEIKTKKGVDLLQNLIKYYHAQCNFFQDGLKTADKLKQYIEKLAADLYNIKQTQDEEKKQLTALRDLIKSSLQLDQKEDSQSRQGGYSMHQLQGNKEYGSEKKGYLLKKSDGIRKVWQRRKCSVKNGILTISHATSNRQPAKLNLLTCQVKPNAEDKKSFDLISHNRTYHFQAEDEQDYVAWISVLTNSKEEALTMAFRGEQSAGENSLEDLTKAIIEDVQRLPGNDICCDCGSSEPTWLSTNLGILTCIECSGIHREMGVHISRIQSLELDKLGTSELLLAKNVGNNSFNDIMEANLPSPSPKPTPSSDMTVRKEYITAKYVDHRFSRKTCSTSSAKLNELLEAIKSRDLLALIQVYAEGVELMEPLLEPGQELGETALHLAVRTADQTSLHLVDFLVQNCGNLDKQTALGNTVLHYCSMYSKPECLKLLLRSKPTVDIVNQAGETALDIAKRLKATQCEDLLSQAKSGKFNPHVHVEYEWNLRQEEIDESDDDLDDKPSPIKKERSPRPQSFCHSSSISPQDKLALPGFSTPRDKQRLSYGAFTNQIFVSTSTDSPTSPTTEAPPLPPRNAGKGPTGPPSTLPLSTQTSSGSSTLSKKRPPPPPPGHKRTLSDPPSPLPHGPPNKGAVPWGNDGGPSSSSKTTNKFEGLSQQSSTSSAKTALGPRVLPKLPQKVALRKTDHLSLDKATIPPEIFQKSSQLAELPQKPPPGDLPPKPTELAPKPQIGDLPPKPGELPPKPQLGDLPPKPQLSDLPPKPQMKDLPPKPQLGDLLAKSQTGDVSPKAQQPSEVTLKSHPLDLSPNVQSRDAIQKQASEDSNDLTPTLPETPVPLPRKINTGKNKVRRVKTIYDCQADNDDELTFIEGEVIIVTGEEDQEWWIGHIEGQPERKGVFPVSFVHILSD

What was measured:
[1] = target: T1, Strep-tagged PEAK3 (ST-PEAK3), wild type (human), Q6ZS72; assay: pull-down; ST-PEAK3 (WT or A436E) pulled down from lysates of U2OS (Figure 5b) and THP1 cells (Figure 5c, 6c), western blot of endogenous partners; THP1 cells also treated or not with pervanadate (0.1 uM, 15 min) or PYK2 inhibitor (1 uM, 2 h); settings: remark: other sources report otherwise
T1 chain: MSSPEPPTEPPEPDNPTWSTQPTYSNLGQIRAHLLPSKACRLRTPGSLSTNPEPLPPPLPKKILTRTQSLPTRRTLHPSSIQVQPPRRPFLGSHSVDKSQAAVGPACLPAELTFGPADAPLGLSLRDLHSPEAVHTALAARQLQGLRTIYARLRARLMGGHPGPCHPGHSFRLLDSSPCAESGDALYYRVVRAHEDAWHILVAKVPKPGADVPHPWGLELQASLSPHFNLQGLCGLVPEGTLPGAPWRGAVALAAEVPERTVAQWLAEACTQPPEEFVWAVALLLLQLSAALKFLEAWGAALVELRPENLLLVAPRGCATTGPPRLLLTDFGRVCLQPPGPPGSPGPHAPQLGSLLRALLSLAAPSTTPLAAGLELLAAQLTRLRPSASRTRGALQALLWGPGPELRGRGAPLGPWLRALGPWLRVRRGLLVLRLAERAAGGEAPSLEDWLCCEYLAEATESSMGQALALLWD

[2] = target: T2, Strep-tagged PEAK3 (ST-PEAK3), wild type (human) (UniProt Q6ZS72); assay: pull-down; ST-PEAK3 captured on Strep-Tactin magnetic beads from lysates of U2OS cells stably expressing ST-PEAK3 (or empty vector) and transfected with FLAG-PEAK3 constructs; western blot (n = 2)
T2 sequence: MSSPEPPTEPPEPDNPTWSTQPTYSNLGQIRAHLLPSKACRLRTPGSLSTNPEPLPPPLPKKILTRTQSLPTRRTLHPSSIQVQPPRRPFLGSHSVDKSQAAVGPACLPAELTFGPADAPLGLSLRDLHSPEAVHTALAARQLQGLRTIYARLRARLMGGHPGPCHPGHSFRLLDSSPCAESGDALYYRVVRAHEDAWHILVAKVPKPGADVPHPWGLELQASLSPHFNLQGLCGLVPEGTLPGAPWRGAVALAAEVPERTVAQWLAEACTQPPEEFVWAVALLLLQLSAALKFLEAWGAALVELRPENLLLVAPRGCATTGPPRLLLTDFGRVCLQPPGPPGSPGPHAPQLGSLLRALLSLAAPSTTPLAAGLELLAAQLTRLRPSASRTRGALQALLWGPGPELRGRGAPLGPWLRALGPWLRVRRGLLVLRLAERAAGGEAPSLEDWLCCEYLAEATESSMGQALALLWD

[3] = target: ADP-ribosylation factor (ARF) GTPase-activating protein ASAP1 (human (endogenous in U2OS, HeLa, THP1, HEK293T)) (UniProt Q9ULH1); assay: co-IP; endogenous ASAP1 immunoprecipitated (anti-ASAP1, Bethyl) from THP1 cells expressing ST-PEAK3, treated or not with pervanadate or PYK2 inhibitor; blot for ST-PEAK3 (n = 2)

- binding [1]: no binding
B1: CRKII, P46108-1 1-304 (protein)
chain: MAGNFDSEERSSWYWGRLSRQEAVALLQGQRHGVFLVRDSSTSPGDYVLSVSENSRVSHYIINSSGPRPPVPPSPAQPPPGVSPSRLRIGDQEFDSLPALLEFYKIHYLDTTTLIEPVSRSRQGSGVILRQEEAEYVRALFDFNGNDEEDLPFKKGDILRIRDKPEEQWWNAEDSEGKRGMIPVPYVEKYRPASASVSALIGGNQEGSHPQPLGGPEPGPYAQPSVNTPLPNLQNGPIYARVIQKRVPNAYDKTALALEVGELVKVTKINVSGQWEGECNGKRGHFPFTHVRLLDQQNPDEDFS

- binding [2]: binds
B2: FLAG-PEAK3, wild type (protein, UniProt Q6ZS72 1-473)
chain: MSSPEPPTEPPEPDNPTWSTQPTYSNLGQIRAHLLPSKACRLRTPGSLSTNPEPLPPPLPKKILTRTQSLPTRRTLHPSSIQVQPPRRPFLGSHSVDKSQAAVGPACLPAELTFGPADAPLGLSLRDLHSPEAVHTALAARQLQGLRTIYARLRARLMGGHPGPCHPGHSFRLLDSSPCAESGDALYYRVVRAHEDAWHILVAKVPKPGADVPHPWGLELQASLSPHFNLQGLCGLVPEGTLPGAPWRGAVALAAEVPERTVAQWLAEACTQPPEEFVWAVALLLLQLSAALKFLEAWGAALVELRPENLLLVAPRGCATTGPPRLLLTDFGRVCLQPPGPPGSPGPHAPQLGSLLRALLSLAAPSTTPLAAGLELLAAQLTRLRPSASRTRGALQALLWGPGPELRGRGAPLGPWLRALGPWLRVRRGLLVLRLAERAAGGEAPSLEDWLCCEYLAEATESSMGQALALLWD

- binding [3]: binds
B3: Strep-tagged PEAK3 (ST-PEAK3), wild type (protein, UniProt Q6ZS72 1-473)
chain: MSSPEPPTEPPEPDNPTWSTQPTYSNLGQIRAHLLPSKACRLRTPGSLSTNPEPLPPPLPKKILTRTQSLPTRRTLHPSSIQVQPPRRPFLGSHSVDKSQAAVGPACLPAELTFGPADAPLGLSLRDLHSPEAVHTALAARQLQGLRTIYARLRARLMGGHPGPCHPGHSFRLLDSSPCAESGDALYYRVVRAHEDAWHILVAKVPKPGADVPHPWGLELQASLSPHFNLQGLCGLVPEGTLPGAPWRGAVALAAEVPERTVAQWLAEACTQPPEEFVWAVALLLLQLSAALKFLEAWGAALVELRPENLLLVAPRGCATTGPPRLLLTDFGRVCLQPPGPPGSPGPHAPQLGSLLRALLSLAAPSTTPLAAGLELLAAQLTRLRPSASRTRGALQALLWGPGPELRGRGAPLGPWLRALGPWLRVRRGLLVLRLAERAAGGEAPSLEDWLCCEYLAEATESSMGQALALLWD
